This assay addresses Flag-INHBA (human inhibin beta A, plasmid human INHBA pcDNA3.1-Flag-C) (human) (UniProt P08476). Briefly: co-IP; CRC cell lysates; protein A/G magnetic beads with antibody or anti-Flag / anti-HA magnetic beads, overnight at 4 °C, six washes with lysis buffer, Western blot. In general terms: In western blotting, separated proteins are transferred to a membrane and probed.

Chains of the proteins cited; added tags and fusions are not shown. Lines headed by an entry give the natural chain unless they say otherwise; changes in a name come on top.
UniProt P08476: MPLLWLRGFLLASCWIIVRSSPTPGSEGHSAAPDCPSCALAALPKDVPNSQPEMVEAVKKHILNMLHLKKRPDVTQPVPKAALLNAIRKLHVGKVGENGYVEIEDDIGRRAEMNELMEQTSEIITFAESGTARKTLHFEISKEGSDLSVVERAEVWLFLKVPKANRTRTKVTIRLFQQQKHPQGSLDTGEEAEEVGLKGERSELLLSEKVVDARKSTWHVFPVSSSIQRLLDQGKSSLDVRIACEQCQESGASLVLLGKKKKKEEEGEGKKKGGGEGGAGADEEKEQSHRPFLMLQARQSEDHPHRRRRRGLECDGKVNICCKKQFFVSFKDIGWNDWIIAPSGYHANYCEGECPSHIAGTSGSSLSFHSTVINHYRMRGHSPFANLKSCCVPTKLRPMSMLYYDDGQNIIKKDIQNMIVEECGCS
UniProt P19474: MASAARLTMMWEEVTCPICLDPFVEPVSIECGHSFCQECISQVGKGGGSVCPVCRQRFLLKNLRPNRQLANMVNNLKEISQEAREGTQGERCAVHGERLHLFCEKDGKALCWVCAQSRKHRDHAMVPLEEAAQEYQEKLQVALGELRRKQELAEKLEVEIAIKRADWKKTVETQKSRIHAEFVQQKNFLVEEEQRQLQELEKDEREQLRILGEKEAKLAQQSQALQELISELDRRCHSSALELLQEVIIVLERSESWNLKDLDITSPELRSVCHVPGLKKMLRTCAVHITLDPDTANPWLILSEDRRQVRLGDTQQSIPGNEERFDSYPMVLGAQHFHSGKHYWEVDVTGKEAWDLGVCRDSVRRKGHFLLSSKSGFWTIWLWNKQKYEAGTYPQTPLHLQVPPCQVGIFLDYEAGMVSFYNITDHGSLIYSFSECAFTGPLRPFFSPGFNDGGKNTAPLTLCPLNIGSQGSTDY

The record followed here is paper PMC12741050.

These are yes or no findings as the source states them, for the method shown. Binding seen in cells or lysates may run through a third protein. Binding can be weak; no strength is given.

As for “TRIM21 in CRC cells (no TRIM21 construct named) (from UniProt P19474 1-475)”, the binding entry is given as “binds”.
